Laboratory results as given in article PMC4405576, “The Crystal Structure and Small-Angle X-Ray Analysis of CsdL/TcdA Reveal a New tRNA Binding Motif in the MoeB/E1 Superfamily” (PLoS ONE, 2015).
No constants are given. Whether binding was seen depends on the method and setting.

Molecular target: T1, CsdE, SufE-like sulfur acceptor (E. coli), P0AGF2
T1 chain: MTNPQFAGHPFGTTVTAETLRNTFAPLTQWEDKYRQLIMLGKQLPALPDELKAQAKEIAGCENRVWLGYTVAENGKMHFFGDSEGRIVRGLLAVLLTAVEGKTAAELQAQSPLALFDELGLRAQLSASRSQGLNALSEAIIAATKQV
Test: cross-linking; BMOE (8.0 Å, sulfhydryl to sulfhydryl) 0.2 mM, 1 h, 25°C; CsdE and TcdA 1:1 (80 μM) in 20 mM sodium/potassium phosphate, 450 mM NaCl, 0.5 mM EDTA, pH 7.4, after 1 mM TCEP; controls with CsdE or TcdA alone; SDS-PAGE; both purified
Details: remark: other sources report otherwise

B1: CsdE, SufE-like sulfur acceptor, P0AGF2 1-147 (protein)
chain: MTNPQFAGHPFGTTVTAETLRNTFAPLTQWEDKYRQLIMLGKQLPALPDELKAQAKEIAGCENRVWLGYTVAENGKMHFFGDSEGRIVRGLLAVLLTAVEGKTAAELQAQSPLALFDELGLRAQLSASRSQGLNALSEAIIAATKQV
binding: no binding (tested: 80 μM)
